Source: patent publication US20220016271A1, “METHODS FOR TREATING CANCER” (The Brigham and Women`s Hospital, Inc., priority 2018, published 2022)
For at least one compound, name, drawing or mass did not settle the structure.

Legend:
p53-null H1299 cells = test: Cell viability by AlamarBlue assay; format: cell-based, human; conditions: together with high-dose everolimus
Description: (§1) Cell viability and transfection efficiency of EGFP-mRNA NPs. The p53-null Hep3B cells or H1299 cells were plated in 96-well plates at a density of 3×10^3 cells per well. […] Lip2k was used as a positive control for transfection efficiency comparison with the NPs. Cell viability was tested by AlamarBlue assay, which is a non-toxic assay that can continuously check real-time cell proliferation through a microplate reader (TECAN, Infinite M200 Pro). Absorbance was examined by a 96-well SpectraMax plate reader (Molecular Devices) at 545 nm and 590 nm. To measure the transection efficiency, cells were treated with EGFP-mRNA by NPs or Lip2k for 24 hours, detached with 2.5% EDTAtrypsin, and collected in PBS solution, followed by evaluating GFP expression using flow cytometry (BD Biosystems). The percentages of EGFP-positive cells were calculated and analyzed by Flowjo software.
(§2) Combination index (CI) calculation.

p53-null Hep3B cells = test: Cell viability by AlamarBlue assay; format: cell-based, human; conditions: together with high-dose everolimus
Description: as §1, §2

SMILES: CC1(C)CCC(CN2CCN(c3ccc(C(=O)NS(=O)(=O)c4ccc(NCC5CCOCC5)c([N+](=O)[O-])c4)c(Oc4cnc5[nH]ccc5c4)c3)CC2)=C(c2ccc(Cl)cc2)C1 [venetoclax]
- combinatorial anti-tumor effect of BCL-2 inhibition with everolimus (cell viability) (p53-null H1299 cells): moderate combinatorial anti-tumor effect
- combinatorial anti-tumor effect of BCL-2 inhibition with everolimus (cell viability) (p53-null Hep3B cells): moderate combinatorial anti-tumor effect
